Results: article PMC9481931
Results are given in words; binding and its absence hold for the method and conditions named. Binding seen in cells or lysates may run through a third protein. Here binding means that the protein was enriched with, or labelled near, the bait; the list need not be complete.

Protein sequences, listed by entry. Tags and fused reporters are not part of them.
UniProt A1ZAW0: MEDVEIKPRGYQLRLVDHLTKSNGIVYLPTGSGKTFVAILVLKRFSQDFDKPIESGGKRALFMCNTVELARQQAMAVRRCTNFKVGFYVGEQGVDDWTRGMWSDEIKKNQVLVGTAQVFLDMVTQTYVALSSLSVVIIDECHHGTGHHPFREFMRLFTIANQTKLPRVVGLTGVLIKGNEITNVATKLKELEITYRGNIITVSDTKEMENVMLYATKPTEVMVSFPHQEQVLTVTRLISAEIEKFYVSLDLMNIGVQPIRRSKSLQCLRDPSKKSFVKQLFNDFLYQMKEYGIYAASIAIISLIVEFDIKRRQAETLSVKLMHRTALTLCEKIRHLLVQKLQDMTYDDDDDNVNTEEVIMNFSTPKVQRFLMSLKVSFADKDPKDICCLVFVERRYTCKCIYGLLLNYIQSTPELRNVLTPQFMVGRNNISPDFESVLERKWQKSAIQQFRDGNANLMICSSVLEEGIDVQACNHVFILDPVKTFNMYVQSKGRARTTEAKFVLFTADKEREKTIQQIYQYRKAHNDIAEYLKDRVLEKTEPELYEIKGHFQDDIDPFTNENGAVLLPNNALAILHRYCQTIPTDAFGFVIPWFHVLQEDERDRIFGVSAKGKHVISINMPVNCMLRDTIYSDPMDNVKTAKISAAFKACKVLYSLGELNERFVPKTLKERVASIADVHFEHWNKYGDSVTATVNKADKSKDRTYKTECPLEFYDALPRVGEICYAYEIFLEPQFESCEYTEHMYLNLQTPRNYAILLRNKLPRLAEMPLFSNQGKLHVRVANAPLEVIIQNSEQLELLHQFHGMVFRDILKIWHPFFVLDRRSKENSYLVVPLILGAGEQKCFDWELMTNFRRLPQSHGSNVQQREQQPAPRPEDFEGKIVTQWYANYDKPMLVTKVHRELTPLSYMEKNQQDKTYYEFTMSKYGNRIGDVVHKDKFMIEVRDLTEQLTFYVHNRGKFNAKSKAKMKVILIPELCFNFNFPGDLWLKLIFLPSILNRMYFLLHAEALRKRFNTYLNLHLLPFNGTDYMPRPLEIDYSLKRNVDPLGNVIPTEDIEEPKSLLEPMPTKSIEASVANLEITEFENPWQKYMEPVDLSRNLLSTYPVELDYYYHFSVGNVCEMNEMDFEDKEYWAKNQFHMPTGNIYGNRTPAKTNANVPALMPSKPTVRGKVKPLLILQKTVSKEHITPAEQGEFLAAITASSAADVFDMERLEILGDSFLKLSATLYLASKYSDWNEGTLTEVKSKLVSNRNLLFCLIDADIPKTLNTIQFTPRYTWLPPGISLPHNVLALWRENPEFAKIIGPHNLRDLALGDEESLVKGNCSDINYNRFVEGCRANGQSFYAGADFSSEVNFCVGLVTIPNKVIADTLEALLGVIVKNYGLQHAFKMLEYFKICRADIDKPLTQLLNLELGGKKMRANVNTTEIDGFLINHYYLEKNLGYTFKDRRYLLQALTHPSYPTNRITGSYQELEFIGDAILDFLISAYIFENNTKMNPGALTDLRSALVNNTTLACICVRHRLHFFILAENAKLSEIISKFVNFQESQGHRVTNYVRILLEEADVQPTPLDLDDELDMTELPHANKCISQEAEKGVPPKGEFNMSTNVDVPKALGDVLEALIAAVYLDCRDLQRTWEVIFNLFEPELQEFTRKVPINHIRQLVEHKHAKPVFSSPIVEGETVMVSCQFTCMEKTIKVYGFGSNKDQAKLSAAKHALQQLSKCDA
UniProt Q9NFU0: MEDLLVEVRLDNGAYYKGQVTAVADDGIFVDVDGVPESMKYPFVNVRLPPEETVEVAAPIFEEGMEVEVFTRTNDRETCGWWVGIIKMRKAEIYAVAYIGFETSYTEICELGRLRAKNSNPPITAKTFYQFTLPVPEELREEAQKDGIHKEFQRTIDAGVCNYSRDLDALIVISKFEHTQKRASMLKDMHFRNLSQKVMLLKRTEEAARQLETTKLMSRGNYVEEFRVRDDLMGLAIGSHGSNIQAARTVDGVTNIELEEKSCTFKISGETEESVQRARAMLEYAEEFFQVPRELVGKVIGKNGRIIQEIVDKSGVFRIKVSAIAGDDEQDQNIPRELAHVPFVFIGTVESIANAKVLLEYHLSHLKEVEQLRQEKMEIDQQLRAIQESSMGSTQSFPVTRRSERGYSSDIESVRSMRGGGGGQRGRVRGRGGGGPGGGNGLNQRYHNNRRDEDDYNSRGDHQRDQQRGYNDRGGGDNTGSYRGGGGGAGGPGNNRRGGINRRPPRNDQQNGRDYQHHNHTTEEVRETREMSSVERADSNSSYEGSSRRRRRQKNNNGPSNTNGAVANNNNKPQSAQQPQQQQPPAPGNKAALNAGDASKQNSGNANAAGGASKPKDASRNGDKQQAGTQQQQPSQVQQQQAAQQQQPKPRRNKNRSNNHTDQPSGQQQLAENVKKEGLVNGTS
UniProt Q9VCU9: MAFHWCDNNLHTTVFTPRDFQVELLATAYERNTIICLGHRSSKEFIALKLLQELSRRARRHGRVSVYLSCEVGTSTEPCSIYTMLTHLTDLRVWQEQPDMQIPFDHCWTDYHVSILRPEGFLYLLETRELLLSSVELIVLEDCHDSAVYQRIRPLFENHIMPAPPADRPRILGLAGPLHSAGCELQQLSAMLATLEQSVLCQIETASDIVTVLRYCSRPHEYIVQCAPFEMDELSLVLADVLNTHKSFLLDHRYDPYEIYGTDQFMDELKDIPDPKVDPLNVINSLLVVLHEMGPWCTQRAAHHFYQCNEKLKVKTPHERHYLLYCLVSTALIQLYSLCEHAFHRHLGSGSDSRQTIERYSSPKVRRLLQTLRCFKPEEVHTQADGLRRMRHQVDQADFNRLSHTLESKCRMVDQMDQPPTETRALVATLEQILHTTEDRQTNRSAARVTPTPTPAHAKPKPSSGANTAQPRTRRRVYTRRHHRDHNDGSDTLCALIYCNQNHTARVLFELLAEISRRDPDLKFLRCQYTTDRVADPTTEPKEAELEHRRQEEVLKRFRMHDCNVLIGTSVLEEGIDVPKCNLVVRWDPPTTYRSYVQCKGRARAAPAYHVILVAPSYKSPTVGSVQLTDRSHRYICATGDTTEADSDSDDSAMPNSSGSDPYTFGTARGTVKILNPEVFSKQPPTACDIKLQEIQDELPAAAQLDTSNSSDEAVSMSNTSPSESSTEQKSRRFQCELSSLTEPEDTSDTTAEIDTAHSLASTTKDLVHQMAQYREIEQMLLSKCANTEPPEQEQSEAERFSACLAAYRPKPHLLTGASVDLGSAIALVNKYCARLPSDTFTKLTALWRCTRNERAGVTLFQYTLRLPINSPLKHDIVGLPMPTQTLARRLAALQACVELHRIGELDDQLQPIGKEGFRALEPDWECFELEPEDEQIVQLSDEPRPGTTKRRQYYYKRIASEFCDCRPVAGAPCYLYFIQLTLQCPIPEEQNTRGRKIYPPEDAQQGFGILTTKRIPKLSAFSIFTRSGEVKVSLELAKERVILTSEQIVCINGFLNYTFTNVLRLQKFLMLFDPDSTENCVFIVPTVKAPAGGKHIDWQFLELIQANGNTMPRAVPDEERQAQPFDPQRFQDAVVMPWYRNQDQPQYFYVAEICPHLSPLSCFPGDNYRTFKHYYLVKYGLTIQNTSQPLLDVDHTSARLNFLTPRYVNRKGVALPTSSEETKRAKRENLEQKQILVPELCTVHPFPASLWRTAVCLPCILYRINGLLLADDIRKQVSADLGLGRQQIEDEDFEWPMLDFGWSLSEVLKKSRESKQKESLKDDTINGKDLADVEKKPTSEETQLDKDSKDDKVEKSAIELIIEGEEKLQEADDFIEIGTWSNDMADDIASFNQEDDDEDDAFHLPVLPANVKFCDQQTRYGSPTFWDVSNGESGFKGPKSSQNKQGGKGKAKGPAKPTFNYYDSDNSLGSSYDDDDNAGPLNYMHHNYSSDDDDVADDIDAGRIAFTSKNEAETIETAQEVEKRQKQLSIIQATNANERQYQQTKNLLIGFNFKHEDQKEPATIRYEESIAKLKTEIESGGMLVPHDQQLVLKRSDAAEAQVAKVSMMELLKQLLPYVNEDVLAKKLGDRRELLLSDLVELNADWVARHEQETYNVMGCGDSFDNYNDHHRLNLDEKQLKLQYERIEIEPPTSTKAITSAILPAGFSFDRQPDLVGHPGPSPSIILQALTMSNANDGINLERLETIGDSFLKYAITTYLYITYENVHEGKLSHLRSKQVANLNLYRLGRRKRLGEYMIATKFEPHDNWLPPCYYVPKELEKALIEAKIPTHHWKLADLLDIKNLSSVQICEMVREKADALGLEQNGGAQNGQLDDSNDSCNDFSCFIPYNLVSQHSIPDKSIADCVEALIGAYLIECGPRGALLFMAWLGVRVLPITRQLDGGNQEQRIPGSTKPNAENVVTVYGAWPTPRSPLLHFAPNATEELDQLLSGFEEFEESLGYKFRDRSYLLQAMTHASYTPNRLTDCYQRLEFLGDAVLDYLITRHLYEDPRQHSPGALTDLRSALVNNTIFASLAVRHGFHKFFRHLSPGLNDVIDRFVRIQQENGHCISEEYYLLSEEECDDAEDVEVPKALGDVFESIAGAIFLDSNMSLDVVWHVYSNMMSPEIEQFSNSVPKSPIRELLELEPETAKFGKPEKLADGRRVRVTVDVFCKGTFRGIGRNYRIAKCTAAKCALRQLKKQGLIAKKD

B1: oskar (protein, UniProt P25158 1-606)
chain: MAAVTSEFPSKPISYTSTNTSAKTYYLKSVKKRVTTCFQQLRDKLQSSGSFRKSSSSCLNQIFVRSDFSACGERFRKIFKSARKTELPELWKVPLVAHELTSRQSSQQLQVVARLFSSTQISTKEITYNSNSNTSENNMTIIESNYISVREEYPDIDSEVRAILLSHAQNGITISSIKSEYRKLTGNPFPLHDNVTDFLLTIPNVTAECSESGKRIFNLKASLKNGHLLDMVLNQKERTSDYSSGAPSLENIPRAPPRYWKNPFKRRALSQLNTSPRTVPKITDEKTKDIATRPVSLHQMANEAAESNWCYQDNWKHLNNFYQQASVNAPKMPVPINIYSPDAPEEPINLAPPGHQPSCRTQSQKTEPTENRHLGIFVHPFNGMNIMKRRHEMTPTPTILTSGTYNDSLLTINSDYDAYLLDFPLMGDDFMLYLARMELKCRFRRHERVLQSGLCVSGLTINGARNRLKRVQLPEGTQIIVNIGSVDIMRGKPLVQIEHDFRLLIKEMHNMRLVPILTNLAPLGNYCHDKVLCDKIYRFNKFIRSECCHLKVIDIHSCLINERGVVRFDCFQASPRQVTGSKEPYLFWNKIGRQRVLQVIETSLEY
B2: Ataxin-2 (protein, UniProt Q8SWR8 1-1084)
chain: MNNNSKRKTRPTGGGASGGISRYNSNDNSLRPTNNKAGAGGGNGGAAVRPSAQGVYNNTFFMHSATALVGSVVEVRLRSGNIYEGVFRTFSGNFDIALELPACIKSKNLPEEGKVPKHIIFPADTVVTIVAKDFDSQYATAGAFQTDGAISDKCNGARPDEKELEPWDSGANGDIDIELDSAANGWDPNEMFRKNENTFGVTSTFDDSLASYTVPLDKGDSLEFKEAEAKAEKLAAEIENNPTCRDRLDLENGDEEALFAAVERPSTEQDQRGDRGDRERNDRDREREERDRDRDRDRGNKPRGAGDFQLRETMSSDRYITKQTRSITGPQLSHVGMSSQGSGRDRDTRGDGSMMMQSGGGSGQGGSTQSTAALMLAGGLKGVGPAPSANASADSSSKYSGGSMVKRKTVPQGGKVMRNNVPTGGSNVSVSQGGNGNSVGQNKGGYQPSMGMPSQYSYQGNSQIMHGSSQYRNQSHMGGANKLNGDSNANTNKPLPQRQMRQYQGSQSNSSLNYGGEPQSLGKPVHGSHGGHPGQNSNSPPLQTAGPQQQQQQQQQQQQQQQQQQPPQQQQHQNIQPQGQNTQPARQVRTRDNQMQELRQFGQDFQLAPSNTSPPQQQQQQQQQQQQHQVQQQQQRALQQSASPPQQQQQQQQQQQHVVLHQVPQTHLHQAALSQPHYVPQQQPQQAPLPQQQHVPHHMQQKAQQQQLVETQHQHVQKQHQSQPQVQQPPPQLLQDPSQQPLPIYHTMPPPQTSPVVVTSPVLLEQPPPQPMPVVQQQQTQQLATPKPEVSPAPPSSNTTTPTGIASTPTAGVIASAGSEKTTPAAPTPTSNSATVPTGTAATAGGATGTTPVVKKHVLNPSAKPFTPRGPSTPNPSRPHTPQTPVPMTNIYTTTGGHVPPAANQPIYVMQPQHPFPPQTHPQAGQPPRLRRSNYPPMAASQMHVSASAATGQPLITAGPIPQFIQYGHAPHQQQFQSHTYAPMQMRVYPDQPQQLQFMTQTPQSTTPSPGQPHQQFHPPPQPSPAGGGPQPAFTPPTQAATYQLMCVHPQSLLANHYFPPPTPQHPQQNQQQYQIVMQQHQPQ
B3: R2D2 (protein, UniProt Q9VLW8 1-311)
chain: MDNKSAVSALQEFCARTQINLPTYSFIPGEDGGYVCKVELLEIEALGNGRSKRDAKHLAASNILRKIQLLPGIHGLMKDSTVGDLDEELTNLNRDMVKELRDYCVRREMPLPCIEVVQQSGTPSAPEFVACCSVASIVRYGKSDKKKDARQRAAIEMLALISSNSDNLRPDQMQVASTSKLKVVDMEESMEELEALRRKKFTTYWELKEAGSVDHTGMRLCDRHNYFKNFYPTLKKEAIEAINSDEYESSKDKAMDVMSSLKITPKISEVESSSLVPLLSVELNCAFDVVLMAKETDIYDHIIDYFRTMLI
B4: Rasputin (protein, UniProt Q9VFT4 1-690)
chain: MVMDATQSQQPSPQSVGREFVRQYYTLLNKAPNHLHRFYNHNSSYIHGESKLVVGQREIHNRIQQLNFNDCHAKISQVDAQATLGNGVVVQVTGELSNDGQPMRRFTQTFVLAAQSPKKYYVHNDIFRYQDLYIEDEQDGESRSENDEEHDVQVVGGTVDQAVQVAGDVVAQQPQQQQAPPQPQAQVVVPQQVAPVAAGGAAPQQIFYPLPAGAAAGRPVAVLPPAPQAAAVPLPAQFTVPPPQPIQNGVVSHEELQQQQVLVPPSVSPLVQQQQPTGTPVLPIVPVPSAGFQQSPLVAPQLIQQQQQQQPAQLPPQQQQQQQPIQQQQPLQQQQQPLAEPEEVEVAPRQQKPPTPVEDFKTIHEQQQQEKYEAAKQQQNEPKTYANLFKSTSSSPSGFVNAALQQQQQLQQQQQQQQSISSNTYNSSSATSGGGNGSQVSYSTTASSYNNSNGNSRLDNGGPLPQRNNSIRNNKGDFEQRRSSNTQQFGDNQQLFLGNIPHHASEDDLREIFSRFGNVLELRILSKAGNKVPPGMRSPLNYGFITYDDPEAVQKCLANCPLYFPENSPDGQKLNVEEKKPRVRNDMVPRQQIGGNNLNNNMGRLGGNNGPQSRPMGNNNGSGGGMMRNNAGGNNLRQGGGGGNGAPRLGGGGGFGQRQDNRTGGGNNQSNGPLRGAGNGQSGGGNYGRR

Target: Dicer-2 (Drosophila melanogaster (endogenous in embryo extracts)) (UniProt A1ZAW0)
Assay: affinity purification with mass spectrometry; anti-Dicer-2 IP from early embryo extract, with or without RNase I, LC-MSMS; scored by SAINTexpress and Top3 against Dicer-2 null extract and against IgG; high-confidence = enriched over both controls

binding	Molecule
binds	Fmr1 (from UniProt Q9NFU0 1-684)
binds	Dicer-1 (from UniProt Q9VCU9 1-2249) (enzyme)

Target: Dicer-2 (Drosophila melanogaster (endogenous in embryo extracts)) (UniProt A1ZAW0)
Assay: as above
Remark: another data set of the same source

binding	Molecule
binds	B1
binds	B2
binds	B3
binds	B4
